# PubChem BioAssay AID1259254, NCATS, 2017
# Purpose: 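Genome-wide screen for genes that prevent DNA re-replication in cancer cells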 (primary screen)
# Cells: human HCT116 colorectal cancer cells
# Reagent: single siRNA against human genes
# Timing: 3 days
# Measured: 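Nuclei stained with Hoechst and imaged; cell-cycle phase assigned by DNA content; G2 share scaled per plate, non-targeting siRNA 0%, GMNN siRNA 100%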
# Reading the numbers: G2 robust z-score and G2 cells, % of GMNN control: higher = more G2 cells, more excess DNA replication; raw share of cells in G2: higher = larger share of cells with G2 DNA content
# Hit rule: 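Active siRNAs have a G2 robust z of 5 or more median absolute deviations over the median, which in these data means about 38% or higher of GMNN control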
# This is one part, drawn at random, of about 59,000 deposited reagents. Of all reagents, about 1,550 (2.6%) got an active call. 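G2 share is only a proxy for re-replication; each gene was hit by three separate siRNAs, and active genes were retested.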 The raw values are shown without normalisation. The numbers tell different reagents against one gene apart. Not given: the amount of reagent.
gene,reagent no.,G2 robust z-score,"G2 cells, % of GMNN control",raw share of cells in G2 (%),Call
GCM2,1,1.32,12.3,10.1,inactive
GCM2,2,1.35,12.5,9.64,inactive
GCM2,3,-0.919,-3.5,3.46,inactive
DMRTC1,1,-0.228,1.37,5.18,inactive
DMRTC1,2,-0.752,-2.32,3.57,inactive
DMRTC1,3,-0.294,0.897,2.93,inactive
DDAH2,1,-0.876,-3.2,5.09,inactive
DDAH2,2,0.739,8.17,6.66,inactive
DDAH2,3,-0.195,1.6,4.69,inactive
NIF3L1,1,0.33,5.29,6.88,inactive
NIF3L1,2,3.04,24.3,15.5,inactive
NIF3L1,3,-1.05,-4.39,1.54,inactive
ADAMTS16,1,0.237,4.64,7.56,inactive
ADAMTS16,2,0.0818,3.54,5.64,inactive
ADAMTS16,3,-0.71,-2.03,3.51,inactive
PXYLP1,1,1.69,14.9,9.63,inactive
PXYLP1,2,1.41,12.9,8.18,inactive
PXYLP1,3,0.571,6.99,5.6,inactive
TMPRSS7,1,-0.903,-3.39,4.17,inactive
TMPRSS7,2,-0.0405,2.68,5.36,inactive
TMPRSS7,3,1.19,11.3,8.48,inactive
GALNT14,1,0.556,6.88,6.72,inactive
GALNT14,2,-0.938,-3.63,4.14,inactive
GALNT14,3,-1.49,-7.53,1.68,inactive
PAPOLA,1,-1.26,-5.93,1.92,inactive
PAPOLA,2,0.993,9.95,10.4,inactive
PAPOLA,3,-0.0681,2.49,6.78,inactive
SLFN12L,1,-0.877,-3.2,2.89,inactive
SLFN12L,2,3.89,30.4,16.5,inactive
SLFN12L,3,0.882,9.17,7.88,inactive
FSD1L,1,-0.984,-3.95,3.78,inactive
FSD1L,2,-0.787,-2.57,3.83,inactive
FSD1L,3,-0.873,-3.18,3.04,inactive
BOLA2,1,0.89,9.23,7.19,inactive
BOLA2,2,1.32,12.2,8.05,inactive
BOLA2,3,-0.295,0.891,3.42,inactive
NBPF9,1,-0.238,1.29,4.28,inactive
NBPF9,2,-0.974,-3.89,1.97,inactive
NBPF9,3,-1.08,-4.62,2.87,inactive
PRPF3,1,-0.202,1.55,5.26,inactive
PRPF3,2,1.25,11.7,9.38,inactive
PRPF3,3,-0.342,0.562,4.79,inactive
PCDHGA2,1,1.8,15.6,10.8,inactive
PCDHGA2,2,-0.816,-2.78,3.44,inactive
PCDHGA2,3,-0.592,-1.2,5.91,inactive
HOXB13,1,-0.601,-1.26,5.15,inactive
HOXB13,2,-1.1,-4.77,2.3,inactive
HOXB13,3,-0.635,-1.5,5.89,inactive
SOX18,1,0.231,4.59,5.56,inactive
SOX18,2,0.185,4.27,7.89,inactive
SOX18,3,0.695,7.85,7.14,inactive
NDUFA3P3,1,-0.104,2.24,3.8,inactive
NDUFA3P3,2,-0.0899,2.33,4.53,inactive
NDUFA3P3,3,-0.517,-0.669,3.03,inactive
ZNF574,1,0.0236,3.13,3.9,inactive
ZNF574,2,4.11,31.9,20.3,inactive
ZNF574,3,1.56,14,8.02,inactive
APMAP,1,0.204,4.4,4.42,inactive
APMAP,2,-0.436,-0.1,4.31,inactive
APMAP,3,0.794,8.56,8.55,inactive
DNAJA3,1,-0.112,2.18,4.25,inactive
DNAJA3,2,0.806,8.64,9.83,inactive
DNAJA3,3,-0.106,2.22,4.27,inactive
SGSM2,1,-1.24,-5.78,2.72,inactive
SGSM2,2,1.82,15.8,10.5,inactive
SGSM2,3,1.04,10.3,7.15,inactive
FGF16,1,1.93,16.6,12.5,inactive
FGF16,2,1.02,10.1,7.92,inactive
FGF16,3,-0.662,-1.69,2.75,inactive

10 entries from above, sorted by “G2 cells, % of GMNN control”, ascending:
gene,reagent no.,G2 robust z-score,"G2 cells, % of GMNN control",raw share of cells in G2 (%),Call
NDUFA3P3,3,-0.517,-0.669,3.03,inactive
APMAP,2,-0.436,-0.1,4.31,inactive
DNAJA3,1,-0.112,2.18,4.25,inactive
DNAJA3,3,-0.106,2.22,4.27,inactive
ZNF574,1,0.0236,3.13,3.9,inactive
APMAP,1,0.204,4.4,4.42,inactive
APMAP,3,0.794,8.56,8.55,inactive
DNAJA3,2,0.806,8.64,9.83,inactive
ZNF574,3,1.56,14,8.02,inactive
ZNF574,2,4.11,31.9,20.3,inactive
